Results are given in words; binding and its absence hold for the method and conditions named. Binding seen in cells or lysates may run through a third protein. Some binding calls cover weakened binding; strength is not graded here. For some of these results: Sequences can lack the tags named with a protein.
biological target: T1, kinesin family 15 (KIF15) (human (endogenous in PANC-1 / MIA PaCa-2)) (UniProt Q9NS87); test: co-IP; PC cell lysates with primary antibody or IgG overnight at 4 °C, affinity agarose beads 4 h, five washes; western blot
T1 sequence: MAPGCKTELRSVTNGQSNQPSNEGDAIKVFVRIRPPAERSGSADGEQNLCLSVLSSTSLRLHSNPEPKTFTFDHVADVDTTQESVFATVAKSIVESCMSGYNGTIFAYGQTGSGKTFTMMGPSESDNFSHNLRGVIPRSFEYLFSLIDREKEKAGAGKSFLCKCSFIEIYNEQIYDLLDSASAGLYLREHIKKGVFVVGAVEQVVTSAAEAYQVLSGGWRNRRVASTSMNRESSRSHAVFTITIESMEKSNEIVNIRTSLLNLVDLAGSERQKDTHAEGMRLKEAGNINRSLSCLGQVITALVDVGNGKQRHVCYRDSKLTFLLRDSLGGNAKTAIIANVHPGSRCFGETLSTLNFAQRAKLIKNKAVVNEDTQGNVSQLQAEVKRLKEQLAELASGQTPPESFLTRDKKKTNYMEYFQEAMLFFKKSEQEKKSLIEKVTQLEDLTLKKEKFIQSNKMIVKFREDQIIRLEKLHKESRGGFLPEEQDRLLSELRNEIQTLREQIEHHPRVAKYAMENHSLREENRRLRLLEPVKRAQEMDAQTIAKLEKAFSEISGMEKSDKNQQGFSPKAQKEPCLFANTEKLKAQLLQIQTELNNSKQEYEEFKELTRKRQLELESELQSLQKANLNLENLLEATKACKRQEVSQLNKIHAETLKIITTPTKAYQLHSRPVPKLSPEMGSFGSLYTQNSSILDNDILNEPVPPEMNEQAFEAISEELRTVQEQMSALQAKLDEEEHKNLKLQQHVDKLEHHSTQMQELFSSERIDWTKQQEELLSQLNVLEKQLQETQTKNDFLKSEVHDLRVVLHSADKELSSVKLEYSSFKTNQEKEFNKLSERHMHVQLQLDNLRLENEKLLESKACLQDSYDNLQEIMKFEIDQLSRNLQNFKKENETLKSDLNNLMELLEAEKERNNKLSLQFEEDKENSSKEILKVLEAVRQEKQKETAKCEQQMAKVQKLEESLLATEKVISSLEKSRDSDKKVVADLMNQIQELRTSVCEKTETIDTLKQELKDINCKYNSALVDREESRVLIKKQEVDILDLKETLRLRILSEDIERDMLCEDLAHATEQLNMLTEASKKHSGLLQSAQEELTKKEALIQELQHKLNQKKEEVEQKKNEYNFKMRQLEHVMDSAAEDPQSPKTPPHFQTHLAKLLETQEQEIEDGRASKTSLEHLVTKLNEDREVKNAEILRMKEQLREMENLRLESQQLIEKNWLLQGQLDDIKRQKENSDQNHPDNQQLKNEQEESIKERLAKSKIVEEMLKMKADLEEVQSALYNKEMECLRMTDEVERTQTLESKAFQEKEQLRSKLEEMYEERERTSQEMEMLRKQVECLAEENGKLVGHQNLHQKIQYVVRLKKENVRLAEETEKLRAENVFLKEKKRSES

Chains of the proteins cited; added tags and fusions are not shown. Lines headed by an entry give the natural chain unless they say otherwise; changes in a name come on top.
UniProt P05556: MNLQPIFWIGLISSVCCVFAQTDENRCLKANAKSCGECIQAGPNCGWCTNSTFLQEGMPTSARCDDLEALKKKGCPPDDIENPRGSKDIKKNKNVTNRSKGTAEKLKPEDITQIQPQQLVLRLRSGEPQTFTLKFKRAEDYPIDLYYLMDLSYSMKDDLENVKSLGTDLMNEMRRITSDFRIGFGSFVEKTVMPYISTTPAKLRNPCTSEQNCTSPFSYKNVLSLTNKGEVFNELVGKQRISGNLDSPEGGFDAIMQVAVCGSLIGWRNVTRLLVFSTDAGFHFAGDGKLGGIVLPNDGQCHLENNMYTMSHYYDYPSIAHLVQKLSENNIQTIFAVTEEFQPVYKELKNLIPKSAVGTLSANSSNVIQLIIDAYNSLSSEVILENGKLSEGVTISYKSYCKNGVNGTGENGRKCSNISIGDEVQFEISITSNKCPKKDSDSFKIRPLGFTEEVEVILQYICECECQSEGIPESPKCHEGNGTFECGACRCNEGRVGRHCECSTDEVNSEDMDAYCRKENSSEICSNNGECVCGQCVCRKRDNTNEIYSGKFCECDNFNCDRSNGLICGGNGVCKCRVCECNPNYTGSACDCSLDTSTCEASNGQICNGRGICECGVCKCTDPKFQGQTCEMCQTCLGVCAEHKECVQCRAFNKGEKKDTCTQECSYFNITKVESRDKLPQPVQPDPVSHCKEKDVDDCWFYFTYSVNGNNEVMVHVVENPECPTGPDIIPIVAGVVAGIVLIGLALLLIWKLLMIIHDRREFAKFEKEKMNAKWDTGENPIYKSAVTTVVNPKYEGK
UniProt O00443: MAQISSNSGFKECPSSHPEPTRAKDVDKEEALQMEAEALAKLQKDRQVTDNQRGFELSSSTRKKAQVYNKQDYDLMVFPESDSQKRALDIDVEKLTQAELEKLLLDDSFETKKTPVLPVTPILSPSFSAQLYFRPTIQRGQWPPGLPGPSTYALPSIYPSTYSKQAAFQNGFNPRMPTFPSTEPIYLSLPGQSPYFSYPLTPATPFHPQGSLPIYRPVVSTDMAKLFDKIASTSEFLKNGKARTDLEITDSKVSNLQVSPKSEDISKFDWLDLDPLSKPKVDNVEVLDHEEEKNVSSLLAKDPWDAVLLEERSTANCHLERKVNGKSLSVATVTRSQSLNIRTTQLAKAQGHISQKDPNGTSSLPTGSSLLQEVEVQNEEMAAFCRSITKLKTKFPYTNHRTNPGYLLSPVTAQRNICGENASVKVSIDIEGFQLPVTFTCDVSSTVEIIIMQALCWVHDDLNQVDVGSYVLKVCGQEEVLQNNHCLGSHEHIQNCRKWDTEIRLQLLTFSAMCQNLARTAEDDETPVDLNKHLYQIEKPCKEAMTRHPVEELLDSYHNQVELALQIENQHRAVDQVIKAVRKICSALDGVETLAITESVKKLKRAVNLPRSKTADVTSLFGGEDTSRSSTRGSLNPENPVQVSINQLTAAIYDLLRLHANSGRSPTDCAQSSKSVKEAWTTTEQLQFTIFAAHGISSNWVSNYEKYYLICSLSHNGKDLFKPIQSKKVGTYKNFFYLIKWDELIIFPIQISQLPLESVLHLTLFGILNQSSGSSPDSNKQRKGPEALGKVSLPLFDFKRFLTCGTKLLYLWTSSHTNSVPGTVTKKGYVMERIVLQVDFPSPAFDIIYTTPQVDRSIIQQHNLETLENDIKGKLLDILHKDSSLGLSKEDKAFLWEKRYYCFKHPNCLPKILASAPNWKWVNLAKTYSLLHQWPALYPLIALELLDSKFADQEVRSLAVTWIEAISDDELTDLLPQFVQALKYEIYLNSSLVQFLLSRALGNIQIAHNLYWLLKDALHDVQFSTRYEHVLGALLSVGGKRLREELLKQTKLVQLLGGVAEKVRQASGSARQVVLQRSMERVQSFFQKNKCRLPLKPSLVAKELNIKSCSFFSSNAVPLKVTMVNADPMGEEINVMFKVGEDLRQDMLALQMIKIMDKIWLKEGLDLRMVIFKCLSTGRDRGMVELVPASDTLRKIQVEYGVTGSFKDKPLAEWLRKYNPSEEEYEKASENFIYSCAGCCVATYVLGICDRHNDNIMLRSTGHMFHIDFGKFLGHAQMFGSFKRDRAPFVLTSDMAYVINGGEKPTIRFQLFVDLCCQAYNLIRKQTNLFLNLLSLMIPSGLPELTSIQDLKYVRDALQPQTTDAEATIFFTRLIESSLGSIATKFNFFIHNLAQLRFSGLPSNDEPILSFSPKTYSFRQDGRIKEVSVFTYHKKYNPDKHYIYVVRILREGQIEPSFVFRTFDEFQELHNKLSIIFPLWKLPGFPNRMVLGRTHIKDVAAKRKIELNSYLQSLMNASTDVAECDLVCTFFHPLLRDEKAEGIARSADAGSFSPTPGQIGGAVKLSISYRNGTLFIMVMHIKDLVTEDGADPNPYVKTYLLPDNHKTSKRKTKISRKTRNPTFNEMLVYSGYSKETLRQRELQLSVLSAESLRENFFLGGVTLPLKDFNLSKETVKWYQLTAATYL
UniProt P62491: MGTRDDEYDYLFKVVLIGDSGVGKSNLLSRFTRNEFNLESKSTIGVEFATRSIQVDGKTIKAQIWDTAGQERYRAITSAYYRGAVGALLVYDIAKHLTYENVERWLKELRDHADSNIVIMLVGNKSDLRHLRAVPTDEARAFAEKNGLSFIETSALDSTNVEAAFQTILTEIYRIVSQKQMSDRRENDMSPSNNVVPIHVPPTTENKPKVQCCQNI

binding, binds:
integrin β1 (from UniProt P05556 21-798) (receptor)
PI3K-C2α (from UniProt O00443 1-1686)
RAB11A (from UniProt P62491 1-216)

biological target: T2, wild-type KIF15 (KIF15-WT), Flag-tagged (UniProt Q9NS87); test: co-IP; PC cells transfected with Flag-KIF15 wild type or mutants; anti-Flag (legends of Fig. 4F, 5E, 6G: 'Flag or HA') immunoprecipitation, western blot; with or without overexpressed PI3K-C2α or SIRT1
T2 sequence: T1 sequence

binding, binds:
integrin β1 (from UniProt P05556 21-798) (receptor)
PI3K-C2α (from UniProt O00443 1-1686)
RAB11A (from UniProt P62491 1-216)
PI3K-C2α, overexpressed (from UniProt O00443 1-1686)
